Test results taken from the supplement of paper PMC10849652.
Some of the results follow.

The chains behind the UniProt entries cited, without tags or fusion partners. Where a name states a change or a piece, a line headed by the entry shows the natural chain unless it says otherwise.
UniProt P16401, whole entry, looked up: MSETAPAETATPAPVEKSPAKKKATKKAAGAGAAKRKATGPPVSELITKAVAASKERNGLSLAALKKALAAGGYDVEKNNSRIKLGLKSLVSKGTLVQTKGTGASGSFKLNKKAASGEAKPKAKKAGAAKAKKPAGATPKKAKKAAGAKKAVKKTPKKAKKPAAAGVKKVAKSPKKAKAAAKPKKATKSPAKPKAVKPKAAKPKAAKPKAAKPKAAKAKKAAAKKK
UniProt P07686: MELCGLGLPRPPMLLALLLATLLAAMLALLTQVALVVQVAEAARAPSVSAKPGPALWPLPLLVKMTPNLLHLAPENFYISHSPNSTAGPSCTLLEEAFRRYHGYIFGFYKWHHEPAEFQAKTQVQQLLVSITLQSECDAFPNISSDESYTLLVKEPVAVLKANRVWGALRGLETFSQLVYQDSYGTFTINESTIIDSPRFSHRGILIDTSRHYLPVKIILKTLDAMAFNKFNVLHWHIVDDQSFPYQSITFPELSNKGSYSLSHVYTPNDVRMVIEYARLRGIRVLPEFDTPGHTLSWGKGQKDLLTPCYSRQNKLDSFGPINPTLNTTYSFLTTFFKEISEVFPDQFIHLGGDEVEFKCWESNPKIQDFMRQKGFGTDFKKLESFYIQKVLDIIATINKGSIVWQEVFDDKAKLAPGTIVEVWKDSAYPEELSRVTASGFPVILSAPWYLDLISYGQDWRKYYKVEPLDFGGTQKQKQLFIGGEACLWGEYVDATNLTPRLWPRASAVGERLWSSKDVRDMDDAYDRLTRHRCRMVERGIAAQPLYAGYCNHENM
UniProt O94992, whole entry, looked up: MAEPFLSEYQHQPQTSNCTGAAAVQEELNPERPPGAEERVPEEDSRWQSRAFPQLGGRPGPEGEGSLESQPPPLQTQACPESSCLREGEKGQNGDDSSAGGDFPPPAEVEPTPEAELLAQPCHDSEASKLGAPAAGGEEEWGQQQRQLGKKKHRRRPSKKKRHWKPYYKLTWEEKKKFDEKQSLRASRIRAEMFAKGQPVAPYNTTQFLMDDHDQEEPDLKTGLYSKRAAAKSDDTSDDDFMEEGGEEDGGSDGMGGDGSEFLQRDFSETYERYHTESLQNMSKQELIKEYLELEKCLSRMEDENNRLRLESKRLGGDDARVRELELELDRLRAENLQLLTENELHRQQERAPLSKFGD
UniProt Q9UKN8: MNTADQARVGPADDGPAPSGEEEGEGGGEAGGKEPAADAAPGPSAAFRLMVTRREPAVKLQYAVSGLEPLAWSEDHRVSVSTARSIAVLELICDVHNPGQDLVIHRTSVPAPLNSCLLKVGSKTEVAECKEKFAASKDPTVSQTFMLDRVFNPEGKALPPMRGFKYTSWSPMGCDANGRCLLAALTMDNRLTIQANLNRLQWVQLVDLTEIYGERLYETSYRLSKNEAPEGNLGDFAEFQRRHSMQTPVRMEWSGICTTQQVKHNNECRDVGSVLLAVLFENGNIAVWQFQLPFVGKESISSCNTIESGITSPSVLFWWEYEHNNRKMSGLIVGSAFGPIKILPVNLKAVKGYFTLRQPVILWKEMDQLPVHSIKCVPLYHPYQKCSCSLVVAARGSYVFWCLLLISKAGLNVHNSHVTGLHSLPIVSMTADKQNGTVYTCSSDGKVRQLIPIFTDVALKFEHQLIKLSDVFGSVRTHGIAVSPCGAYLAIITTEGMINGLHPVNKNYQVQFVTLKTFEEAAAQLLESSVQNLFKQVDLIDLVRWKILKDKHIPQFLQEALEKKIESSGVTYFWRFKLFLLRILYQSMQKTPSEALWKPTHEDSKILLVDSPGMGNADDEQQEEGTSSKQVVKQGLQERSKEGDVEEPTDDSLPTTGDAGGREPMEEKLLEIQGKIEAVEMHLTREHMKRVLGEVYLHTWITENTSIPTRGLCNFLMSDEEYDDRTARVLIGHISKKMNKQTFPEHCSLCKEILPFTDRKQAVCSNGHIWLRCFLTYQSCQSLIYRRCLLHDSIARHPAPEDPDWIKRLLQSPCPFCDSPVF
UniProt P69891: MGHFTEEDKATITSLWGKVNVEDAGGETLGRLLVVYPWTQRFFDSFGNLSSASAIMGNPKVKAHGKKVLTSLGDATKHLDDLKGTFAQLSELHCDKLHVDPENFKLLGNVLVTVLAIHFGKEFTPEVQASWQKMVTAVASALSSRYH
UniProt Q96CS2: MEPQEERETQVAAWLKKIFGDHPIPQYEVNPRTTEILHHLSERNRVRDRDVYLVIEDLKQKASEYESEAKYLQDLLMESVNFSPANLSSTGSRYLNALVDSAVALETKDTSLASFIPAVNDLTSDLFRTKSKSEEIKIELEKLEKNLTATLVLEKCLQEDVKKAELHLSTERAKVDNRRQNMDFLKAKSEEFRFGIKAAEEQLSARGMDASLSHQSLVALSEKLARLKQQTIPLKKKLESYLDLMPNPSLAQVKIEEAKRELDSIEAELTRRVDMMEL
UniProt Q8WUI4: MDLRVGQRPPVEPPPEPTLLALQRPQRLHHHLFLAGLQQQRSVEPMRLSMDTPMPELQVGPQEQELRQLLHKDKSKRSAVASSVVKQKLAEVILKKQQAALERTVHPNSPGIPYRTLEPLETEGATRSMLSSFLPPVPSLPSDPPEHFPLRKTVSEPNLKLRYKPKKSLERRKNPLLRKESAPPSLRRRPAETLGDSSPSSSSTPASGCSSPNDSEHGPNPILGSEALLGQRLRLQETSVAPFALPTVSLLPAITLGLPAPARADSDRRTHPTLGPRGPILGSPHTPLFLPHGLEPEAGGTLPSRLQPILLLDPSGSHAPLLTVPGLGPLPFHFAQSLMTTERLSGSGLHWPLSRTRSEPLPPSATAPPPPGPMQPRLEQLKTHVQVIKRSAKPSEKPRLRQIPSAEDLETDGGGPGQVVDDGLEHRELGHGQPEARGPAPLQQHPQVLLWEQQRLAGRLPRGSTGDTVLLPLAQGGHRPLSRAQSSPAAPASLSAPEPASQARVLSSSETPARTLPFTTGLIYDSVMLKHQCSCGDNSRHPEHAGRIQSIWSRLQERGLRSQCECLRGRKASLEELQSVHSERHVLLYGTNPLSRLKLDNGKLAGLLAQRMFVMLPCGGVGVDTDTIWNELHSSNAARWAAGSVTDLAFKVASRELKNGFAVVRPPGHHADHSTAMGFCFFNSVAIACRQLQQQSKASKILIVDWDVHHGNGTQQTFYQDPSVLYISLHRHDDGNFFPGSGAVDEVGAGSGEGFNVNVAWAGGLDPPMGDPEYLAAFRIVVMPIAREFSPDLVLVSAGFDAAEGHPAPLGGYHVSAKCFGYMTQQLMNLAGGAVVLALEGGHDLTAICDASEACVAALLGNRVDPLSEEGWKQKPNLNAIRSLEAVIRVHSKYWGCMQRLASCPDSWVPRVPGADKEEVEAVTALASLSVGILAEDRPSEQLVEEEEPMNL
UniProt Q00341: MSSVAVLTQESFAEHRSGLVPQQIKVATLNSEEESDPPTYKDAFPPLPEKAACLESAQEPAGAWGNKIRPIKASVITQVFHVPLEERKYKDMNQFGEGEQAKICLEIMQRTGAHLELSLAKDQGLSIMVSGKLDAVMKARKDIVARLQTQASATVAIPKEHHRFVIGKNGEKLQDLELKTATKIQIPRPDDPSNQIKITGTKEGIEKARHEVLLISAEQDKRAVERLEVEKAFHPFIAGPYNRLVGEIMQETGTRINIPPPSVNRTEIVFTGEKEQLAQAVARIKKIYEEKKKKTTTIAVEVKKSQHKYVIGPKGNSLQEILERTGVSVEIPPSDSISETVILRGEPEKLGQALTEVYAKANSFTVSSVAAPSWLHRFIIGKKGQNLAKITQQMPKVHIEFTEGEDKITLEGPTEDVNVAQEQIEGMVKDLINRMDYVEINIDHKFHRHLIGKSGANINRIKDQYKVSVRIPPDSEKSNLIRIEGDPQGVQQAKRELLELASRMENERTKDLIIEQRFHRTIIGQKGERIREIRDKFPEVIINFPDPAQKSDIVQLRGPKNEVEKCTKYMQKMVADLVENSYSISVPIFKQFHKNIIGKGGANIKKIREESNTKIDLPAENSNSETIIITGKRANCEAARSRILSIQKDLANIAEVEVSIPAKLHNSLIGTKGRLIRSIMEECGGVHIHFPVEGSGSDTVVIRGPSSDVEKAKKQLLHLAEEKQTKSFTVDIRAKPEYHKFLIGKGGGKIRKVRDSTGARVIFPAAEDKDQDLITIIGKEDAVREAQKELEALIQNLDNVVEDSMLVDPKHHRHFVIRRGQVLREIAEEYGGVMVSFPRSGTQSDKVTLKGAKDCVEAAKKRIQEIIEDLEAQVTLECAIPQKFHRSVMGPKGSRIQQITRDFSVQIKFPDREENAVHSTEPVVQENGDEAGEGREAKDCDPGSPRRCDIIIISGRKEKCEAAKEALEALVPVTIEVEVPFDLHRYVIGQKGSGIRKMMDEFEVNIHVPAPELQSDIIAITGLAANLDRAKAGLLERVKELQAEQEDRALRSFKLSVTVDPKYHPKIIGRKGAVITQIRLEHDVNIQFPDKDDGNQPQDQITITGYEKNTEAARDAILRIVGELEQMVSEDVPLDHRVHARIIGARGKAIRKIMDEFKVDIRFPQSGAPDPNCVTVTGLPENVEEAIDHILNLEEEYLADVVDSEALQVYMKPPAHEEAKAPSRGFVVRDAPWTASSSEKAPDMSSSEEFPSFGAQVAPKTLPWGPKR
UniProt P69905, whole entry, looked up: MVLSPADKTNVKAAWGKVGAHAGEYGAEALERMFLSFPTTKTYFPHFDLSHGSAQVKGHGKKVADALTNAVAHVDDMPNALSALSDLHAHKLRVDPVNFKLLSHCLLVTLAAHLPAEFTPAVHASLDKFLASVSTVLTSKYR
UniProt P02100: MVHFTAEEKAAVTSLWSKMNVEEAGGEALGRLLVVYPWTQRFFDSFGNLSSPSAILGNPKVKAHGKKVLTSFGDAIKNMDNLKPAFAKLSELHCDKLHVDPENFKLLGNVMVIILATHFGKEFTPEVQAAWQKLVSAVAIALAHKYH
UniProt P56524: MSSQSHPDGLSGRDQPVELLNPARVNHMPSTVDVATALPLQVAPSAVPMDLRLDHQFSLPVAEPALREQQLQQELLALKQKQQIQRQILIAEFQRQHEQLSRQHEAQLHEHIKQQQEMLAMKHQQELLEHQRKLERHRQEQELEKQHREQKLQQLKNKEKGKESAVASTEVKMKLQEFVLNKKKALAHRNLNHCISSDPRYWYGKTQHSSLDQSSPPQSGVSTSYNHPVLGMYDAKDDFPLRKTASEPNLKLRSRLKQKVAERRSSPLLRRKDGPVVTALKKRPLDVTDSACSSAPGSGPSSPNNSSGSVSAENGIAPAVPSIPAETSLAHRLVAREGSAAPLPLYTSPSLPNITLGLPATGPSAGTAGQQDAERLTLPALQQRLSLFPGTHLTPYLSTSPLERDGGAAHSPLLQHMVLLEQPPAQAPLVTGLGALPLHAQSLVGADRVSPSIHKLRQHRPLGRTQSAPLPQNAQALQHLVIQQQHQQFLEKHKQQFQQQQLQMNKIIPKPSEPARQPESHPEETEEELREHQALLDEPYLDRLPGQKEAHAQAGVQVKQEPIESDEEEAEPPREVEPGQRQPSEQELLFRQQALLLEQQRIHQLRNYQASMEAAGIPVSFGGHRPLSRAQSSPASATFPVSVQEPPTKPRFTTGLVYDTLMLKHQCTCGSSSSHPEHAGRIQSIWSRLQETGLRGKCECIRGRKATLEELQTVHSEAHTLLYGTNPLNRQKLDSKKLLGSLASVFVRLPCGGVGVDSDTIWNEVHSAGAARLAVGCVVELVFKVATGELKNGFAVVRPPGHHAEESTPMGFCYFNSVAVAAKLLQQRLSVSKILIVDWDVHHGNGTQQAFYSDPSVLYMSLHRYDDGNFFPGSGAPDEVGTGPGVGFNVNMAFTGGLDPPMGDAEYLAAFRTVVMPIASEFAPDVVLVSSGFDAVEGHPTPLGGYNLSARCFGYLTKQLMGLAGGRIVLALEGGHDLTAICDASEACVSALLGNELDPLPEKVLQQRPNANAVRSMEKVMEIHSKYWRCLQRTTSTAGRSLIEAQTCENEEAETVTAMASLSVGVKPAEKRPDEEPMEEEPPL
UniProt P49840: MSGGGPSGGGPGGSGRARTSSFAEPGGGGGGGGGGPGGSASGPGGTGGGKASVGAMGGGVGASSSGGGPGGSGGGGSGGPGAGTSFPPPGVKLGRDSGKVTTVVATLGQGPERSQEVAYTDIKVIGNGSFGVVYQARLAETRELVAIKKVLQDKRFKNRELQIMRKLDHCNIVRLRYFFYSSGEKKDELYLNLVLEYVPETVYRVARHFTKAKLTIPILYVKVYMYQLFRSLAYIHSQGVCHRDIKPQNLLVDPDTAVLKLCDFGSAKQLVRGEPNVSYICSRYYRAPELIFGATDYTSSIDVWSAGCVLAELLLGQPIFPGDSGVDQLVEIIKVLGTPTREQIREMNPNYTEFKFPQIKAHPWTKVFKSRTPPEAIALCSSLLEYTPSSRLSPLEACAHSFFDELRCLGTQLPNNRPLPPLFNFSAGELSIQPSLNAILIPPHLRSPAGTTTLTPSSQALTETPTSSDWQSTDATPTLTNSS

Legend:
Assay in all cases: log2 fold change, soluble protein after heating vs DMSO (PISA); higher = thermal stabilisation; K562 cells, 10 uM, 30 min; active = over 0.2 and 3.5 SD of the protein, either way, in both replicates (recomputed)
[1] = compound: C1=CC=C(C=C1)[C@H](COC2=CC3=C(C=C2)NC(=O)N3)NC(=O)C4=CC=CN(C4=O)CC5=CC(=C(C=C5)F)F
Procedure, shortened: (§1)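 K562 cells at 2×10^6 cells/mL were exposed to 10 μM compound for 30 min, then aliquots were heated for 3 min across 48°C-58°C, pooled, and extracted in PBS containing 0.5% NP-40 at 4°C. The supernatant after 21,000xg for 90 min was taken as soluble protein and measured by TMTpro 16plex LC-MS/MS with channel sums equalised. Thermal stability is reported relative to control samples, with values from duplicates. Fold changes are given on a log2 scale.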

[2] = compound: CC1=C(SC2=C1C(=N[C@H](C3=NN=C(N32)C)CC(=O)N)C4=CC=C(C=C4)Cl)C
Procedure, shortened: as §1

[3] = compound: CC1=C2C(=CC=C1)N=C(N(C2=O)C3=CC=CC=C3C)CN4C=NC5=C(N=CN=C54)N
Procedure, shortened: as §1

[4] = compound: Cc1sc2c(c1C)C(c1ccc(Cl)cc1)=N[C@@H](CC(=O)OC(C)(C)C)c1nnc(C)n1-2
Procedure, shortened: as §1

[5] = compound: c1ccc([C@@H]2C[C@H]2NC2CCNCC2)cc1
Procedure, shortened: as §1

Measured: log2 fold change

H1-5 (UniProt P16401)
inactive: [1] 0.138 | [2] -0.354 | [3] -0.261 | [4] 0.035 | [5] 0

HCLS1 (UniProt P14317)
inactive: [1] 0.039 | [2] 0.04 | [3] -0.02 | [4] -0.016 | [5] 0.029

HEXB (UniProt P07686)
inactive: [1] 0.028 | [2] 0.005 | [3] 0.064 | [4] -0.008 | [5] 0.016

HEXIM1 (UniProt O94992)
inactive: [1] 0.038 | [2] -0.012 | [3] 0.056 | [4] -0.003 | [5] -0.028

GUSB (UniProt P08236)
inactive: [1] 0.019 | [2] -0.057 | [3] -0.048 | [4] 0.039 | [5] 0.053

HBS1L isoform 2 (UniProt Q9Y450)
inactive: [1] -0.012 | [2] -0.019 | [3] 0.112 | [4] 0.129 | [5] -0.046

HEBP1 (UniProt Q9NRV9)
inactive: [1] 0.27 | [2] 0.017 | [3] 0.063 | [4] -0.013 | [5] 0.006

GTF3C4 (UniProt Q9UKN8)
inactive: [1] 0.027 | [2] 0.065 | [3] 0.143 | [4] 0.02 | [5] 0.025

HDAC6 (UniProt Q9UBN7)
inactive: [1] 0.159 | [2] 0.008 | [3] -0.001 | [4] -0.002 | [5] 0.009

HBG1 (UniProt P69891)
inactive: [1] 0.034 | [2] 0.152 | [3] 0.043 | [4] -0.113 | [5] -0.035

HAUS1 (UniProt Q96CS2)
inactive: [1] 0.052 | [2] -0.065 | [3] 0.071 | [4] 0.098 | [5] -0.007

HDAC7 isoform 5 (UniProt Q8WUI4)
inactive: [1] -0.008 | [2] 0.039 | [3] -0.004 | [4] -0.026 | [5] -0.003

HDLBP (UniProt Q00341)
inactive: [1] 0.04 | [2] -0.132 | [3] -0.039 | [4] 0.182 | [5] 0.014

GTPBP4 (UniProt Q9BZE4)
inactive: [1] -0.045 | [2] -0.207 | [3] -0.212 | [4] 0.179 | [5] 0.014

GTSF1 (UniProt Q8WW33)
inactive: [1] 0.026 | [2] 0.016 | [3] 0.012 | [4] -0.002 | [5] 0.008

HBA1 (UniProt P69905)
inactive: [1] -0.003 | [2] 0.163 | [3] 0.005 | [4] -0.167 | [5] -0.023

HBE1 (UniProt P02100)
inactive: [1] -0.036 | [2] 0.111 | [3] 0.026 | [4] -0.095 | [5] -0.07

HACL1 (UniProt Q9UJ83)
inactive: [1] 0.002 | [2] -0.01 | [3] 0.027 | [4] -0.012 | [5] -0.017

Random excerpt: 2 entries already listed, in no set order.
HACL1 (UniProt Q9UJ83)
inactive: [1] 0.002 | [2] -0.01 | [3] 0.027 | [4] -0.012 | [5] -0.017

HBE1 (UniProt P02100)
inactive: [1] -0.036 | [2] 0.111 | [3] 0.026 | [4] -0.095 | [5] -0.07

Carrying on:

HDHD3 (UniProt Q9BSH5)
inactive: [1] -0.025 | [2] 0.071 | [3] 0.064 | [4] -0.129 | [5] 0

HERC2 (UniProt O95714)
inactive: [1] -0.189 | [2] -0.017 | [3] -0.029 | [4] 0.327 | [5] -0.001

HAX1 (UniProt O00165)
inactive: [1] -0.112 | [2] -0.008 | [3] 0.063 | [4] 0.008 | [5] -0.002

HERC4 (UniProt Q5GLZ8)
inactive: [1] -0.005 | [2] 0.082 | [3] 0.035 | [4] -0.033 | [5] 0.007

HERC1 (UniProt Q15751)
inactive: [1] -0.009 | [2] 0.012 | [3] 0.036 | [4] 0.007 | [5] 0

HDAC4 (UniProt P56524)
inactive: [1] -0.191 | [2] -0.017 | [3] 0.031 | [4] -0.07 | [5] 0.152

GSK3A (UniProt P49840)
inactive: [1] 0.006 | [2] 0.099 | [3] 0.02 | [4] -0.014 | [5] -0.034
